# No constants are given. Whether binding was seen depends on the method and setting. Binding seen in cells or lysates may run through a third protein.
# Target: CD26-YFP (human CD26 / dipeptidyl peptidase IV fused to YFP on the C-terminal end) (human) (UniProt P27487)
# Experiment: FRET or BRET; NanoBRET between two HEK-293T cell populations: cells with the Nluc donor mixed with cells with the YFP acceptor, 10 min in HBSS without shaking, without or with bovine ADA (0.01-10 ug/ml), bovine albumin (1 ug/ml) or ADA plus mAb TA5.9-CC1-4C8 (0.3 ug/ml); 5 uM coelenterazine H; pair: the two membrane proteins
substance,measurement,value
NMDAR1A-Nluc (human NMDA receptor subunit NMDAR1A fused to NanoLuc on the N-terminal end) (from UniProt Q05586 19-938),binding,no binding (tested: without or with 1 ug/ml bovine ADA)

# From publication PMC5818423
